Source: PubChem BioAssay AID493014 (National Center for Advancing Translational Sciences (NCATS), 2011)
Some of the results follow. Further columns of the screen follow, without active or inactive calls. Compounds called inactive in the main read-out are mostly missing here. The note in brackets gives the kind of curve behind each potency; many fits are weak.

Experiment: qHTS Assay to Find Inhibitors of Chronic Active B-Cell Receptor Signaling
Conditions: ABC-DLBCL IkBa-CBG/CBR reporter, luminescence ratio (green luciferase fused to IkBa over red control in TMD8 lymphoma cells), 4 h
Description: NIH Molecular Libraries Probe Production Network [MLPCN] NIH Chemical Genomics Center [NCGC] MLPCN Grant: 1 R03 DA031086-01A1 PI Name: Dr. R. Eric Davis NCGC Assay Overview: Diffuse large B-cell lymphoma (DLBCL) is the most common category of non-Hodgkin lymphoma, with ~20,000 new cases per year in the United States. DLBCL should be regarded as a collection of different neoplasms. Microarray gene expression analysis has defined two principal types of DLBCL, named for their similarity to normal B cell stages or activation states: a germinal center B-cell (GCB) type, and an activated B-cell (ABC) type. […] Following the addition of doxycycline to induce expression of the luciferases, the green luminescence in control cultures rises only slowly because the CBG fusion partner IkappaBalpha is targeted by IKK activity for rapid degradation. In contrast, green luminescence rises rapidly in the presence of proteasome inhibitors or IKK inhibitors. The rise in red luminescence of CBR is not affected by proteasome or IKK inhibitors, and serves as normalization for cell number and nonspecific effects. […]
NCGC Assay Protocol Summary: Cells were seeded in 1536-well plates at 5000 cells/4uL in IMDM medium containing 0.5% FBS, w/o phenol red, 1% penicillin/streptomycin. […] The plates were measured on a ViewLux plate reader for green luminescence (540/20 nm filter) and red luminescence (618/8 nm filter). […]

Structure (SMILES)	AC50 (measured here: IkBa-CBG green luminescence)	AC50 (measured here: CBR red luminescence, cell number)
Cc1c(CC(=O)O)c(=O)oc2c(C)c3occ(-c4ccc(Br)cc4)c3cc12	14.1 µM [rising, partial curve, poor fit]	
COc1cc(/C=C2\C(=N)N3N=C(S(C)(=O)=O)SC3=NC2=O)ccc1OCCOc1ccccc1C		0.708 µM [rising, full curve, poor fit]
